Among all 300,000 compounds or so, about 3,700 (1.2%) were called active. The inconclusive results got no clear call from the source; some entries with a clear call stand among them for comparison. Calls follow the shape of the full dose curve; tested in HEK293 cells. Where the call is inconclusive, the potency comes from a doubtful curve fit.
Assay: qHTS for Inhibitors of binding or entry into cells for Lassa Virus; also: nearly all actives have a fitted effect of over 50% in size
Settings: Lassa virus pseudotype entry inhibition, cell reporter; series mostly up to 37.9 µM
Potency is read from the fitted curve at half-maximal effect.

Row | SMILES | Potency
1 | CCCCCC(=O)c1ccc(O)cc1O | inactive
2 | c1ccc(Oc2ccc(-c3ccnc4nc(N5CCN(c6ccccc6)CC5)nn34)cc2)cc1 | inconclusive: 10.3 µM [inhibitor, partial curve]
3 | O=C(c1ccccc1)c1ccc(OCC(O)CN2CCN(S(=O)(=O)N3CCCCC3)CC2)cc1 (configuration not stated) | inconclusive: 16.4 µM [inhibitor, single point]
4 | COc1ccccc1NC(=O)c1c(NCc2sccc2C)sc2c1CCCCC2 | inactive
5 | CCOc1ccc(Cc2nnc(SCC(=O)Nc3ccc(OC)cc3)n(N)c2=O)cc1 | inconclusive: 3.16 µM [inhibitor, single point]
6 | NC(=O)N/N=C/C=C/c1ccc(F)cc1 | inactive
7 | O=C(N/N=C/c1c[nH]c2ccccc12)c1ccc(Br)cc1 | inactive
8 | O=C(Nc1sc2c(c1C(=O)O)CCCC2)c1ccccc1Cl | inconclusive: 35.5 µM [inhibitor, single point]
9 | COc1ccc(C(CNC(=O)COc2ccc(C)cc2)N2CCCCC2)cc1 (configuration not stated) | inactive
10 | O=C(Nc1ccc(-c2nc3ccccc3c(=O)o2)cc1)c1ccco1 | inactive
11 | CCN1C(=O)S/C(=C/c2ccc(Sc3nc4ccccc4[nH]3)o2)C1=O | inconclusive: 35.5 µM [inhibitor, single point]
12 | O=C(NCc1ccc2c(c1)OCO2)c1ccc(S(=O)(=O)N2CCCCC2)cc1 | inactive
13 | CCN1CCN(C(c2ccc(OC)cc2)c2c(O)cc(C)n(CCOC)c2=O)CC1 (configuration not stated) | inactive
14 | c1ccc(-c2nc(NCC3CCCO3)c3ccccc3n2)nc1 (configuration not stated) | inconclusive: 20.6 µM [inhibitor, single point]
15 | Cc1ccc(S(=O)(=O)c2nc(-c3ccco3)oc2SCC(=O)NCC2CCCO2)cc1 (configuration not stated) | inactive
16 | COc1cccc(CC(=O)Nc2cc(S(=O)(=O)N3CCOCC3)ccc2OC)c1 | inactive
17 | CSc1ccc(CCNc2ncnc3onc(C)c23)cc1 | inconclusive: 35.5 µM [inhibitor, partial curve, poor fit]
18 | CCN(CC)CCn1c2c(c(SCC(=O)Nc3ccc(C)c(F)c3)nc1=O)CCCC2 | inactive
19 | Cc1cc(C)c2oc(C(=O)N(Cc3ccc(F)cc3)C3CCS(=O)(=O)C3)cc(=O)c2c1 (configuration not stated) | inactive
20 | C/C(N)=C(/C#N)C(=O)CSc1nnc(Nc2ccccc2)s1 | inconclusive: 22.4 µM [inhibitor, single point]
21 | COc1cc2ccccc2cc1C(=O)N1CC(C)OC(C)C1 (configuration not stated) | inactive
22 | CCCCOc1c(Cl)cc(C(=O)N(Cc2ccc(C)o2)C2CCS(=O)(=O)C2)cc1Cl (configuration not stated) | inactive
23 | CC(C)CN1C(=O)C(=O)N(CC(=O)NC(C)CCc2ccccc2)C1=O (configuration not stated) | inconclusive: 35.5 µM [activator, single point]
24 | CCOc1ccccc1N1CCN(C(=O)CCCc2nc3ccccc3s2)CC1 | inactive

A draw from above in order of molar mass, high to low:
Row | SMILES | Potency
22 | CCCCOc1c(Cl)cc(C(=O)N(Cc2ccc(C)o2)C2CCS(=O)(=O)C2)cc1Cl (configuration not stated) | inactive
15 | Cc1ccc(S(=O)(=O)c2nc(-c3ccco3)oc2SCC(=O)NCC2CCCO2)cc1 (configuration not stated) | inactive
8 | O=C(Nc1sc2c(c1C(=O)O)CCCC2)c1ccccc1Cl | inconclusive: 35.5 µM [inhibitor, single point]
20 | C/C(N)=C(/C#N)C(=O)CSc1nnc(Nc2ccccc2)s1 | inconclusive: 22.4 µM [inhibitor, single point]
21 | COc1cc2ccccc2cc1C(=O)N1CC(C)OC(C)C1 (configuration not stated) | inactive

The results go on:

Row | SMILES | Potency
25 | CN(C)CCCN(C(=O)CCSc1ccccc1)c1nc2cc3c(cc2s1)OCO3 | inconclusive: 8.91 µM [inhibitor, partial curve, poor fit]
26 | CN(C(=O)c1cc(-c2ccccc2O)on1)c1ccccc1 | inconclusive: 10 µM [inhibitor, single point]
27 | Cc1c(Cl)c([N+](=O)[O-])nn1CC(=O)NCc1cccnc1 | inconclusive: 35.5 µM [activator, partial curve, poor fit]
28 | CSc1ccc(CN2CCC(CO)(Cc3ccc(Cl)cc3)CC2)cc1 | active: 12.6 µM
29 | COc1ccc(-c2cc(C(=O)N3CCN(c4ncccn4)CC3)c3ccccc3n2)c(OC)c1 | inconclusive: 14.1 µM [inhibitor, partial curve, poor fit]
30 | COc1ccccc1/C=C/C(=O)N1CCOCC1 | inconclusive: 31.6 µM [activator, single point]
31 | Cc1nn(-c2cccc(C(F)(F)F)c2)c(=O)c2noc(C)c12 | inconclusive: 22.4 µM [inhibitor, single point]
32 | COc1ccc(/C=N/NC(=O)c2c(C)nnn2-c2nonc2N)cc1OC | inactive
33 | Cn1c(SCC(=O)N2CCCCCC2)nc2c([nH]c3ccccc32)c1=O | inactive
34 | COC(=O)C1=C(C(=O)OC)[C@@H]2N(C)c3ccc(OC)cc3[C@@]23C[C@@H](C(=O)OC)N(C(=O)c2cc(C)oc2C)C3=N1 | inconclusive: 0.0008 µM [inhibitor]
35 | O=C(Nc1ccc2oc(-c3cccc4ccccc34)nc2c1)c1ncn[nH]1 | inconclusive: 0.501 µM [activator, full curve]
36 | Cc1cc(NS(=O)(=O)c2ccc(NC(=O)COc3ccc(Cl)cc3)cc2)nc(C)n1 | inactive
37 | Cc1ccc(C(=O)NC(=S)NNC(=O)c2ccccc2O)cc1 | inactive
38 | Cc1ccc(-n2nc3c(=O)n(CC(=O)Nc4ccccc4F)nc(C)c3c2C)c(C)c1 | inactive
39 | Cc1ccc2nc(SCC(=O)c3c[nH]c4ccccc34)[nH]c2c1 | inconclusive: 35.5 µM [inhibitor, single point]
40 | Cc1nc([N+](=O)[O-])c(N2CCN(Cc3ccccc3)CC2)n1Cc1ccccc1 | inconclusive: 7.08 µM [inhibitor, partial curve]
41 | Cc1ccc(N(Cc2ccc(C(=O)NCCSc3ccccn3)cc2)S(C)(=O)=O)cc1C | inactive
42 | Cc1ccc2c(c1)N(S(=O)(=O)c1ccc(F)cc1)C(C(C)(C)C)CO2 (configuration not stated) | inconclusive: 25.9 µM [inhibitor, single point]
43 | O=C(NCCc1ccccc1)C1CCC(=O)N1CCc1ccccc1 (configuration not stated) | inactive
44 | CCOc1cc(-c2nc(-c3ccc(-c4ccc(C)cc4)nc3OC)no2)cc(OCC)c1OCC | inactive
45 | CC(=O)N(c1cc(C)ccc1C)c1ccccc1[N+](=O)[O-] | inactive
46 | Cn1cc(CN2CCN(c3cnccn3)CC2)c(-c2cccc(Cl)c2)n1 | inconclusive: 8.91 µM [inhibitor, partial curve, poor fit]
47 | COc1cccc(NS(=O)(=O)c2ccc3c(c2)N(C(C)=O)CCS3)c1 | inconclusive: 2.82 µM [inhibitor, full curve]
48 | Cc1ccc(-c2csc3ncn(CC(=O)OC(C)C)c(=O)c23)cc1 | inconclusive: 22.4 µM [inhibitor, partial curve, poor fit]

Row | SMILES | Potency
49 | COc1cc(C(=O)N/N=C(\C)Cc2ccccc2)cc(OC)c1OC | inconclusive: 10 µM [inhibitor, partial curve]
50 | CC1(C)CC2(CC(c3ccccc3)c3ccc(O)cc3O2)NC(=S)N1 (configuration not stated) | inconclusive: 1.26 µM [inhibitor, single point]
51 | CCCOc1ccc(C(CC(=O)O)NC(=O)Cc2ccccc2)cc1 (configuration not stated) | inconclusive: 12.6 µM [activator, partial curve, poor fit]
52 | CN(C)S(=O)(=O)c1ccc(C(=O)Nc2ccc(-n3nncc3-c3ccccc3)cc2)cc1 | inconclusive: 12.6 µM [inhibitor, partial curve, poor fit]
53 | CNC(=S)N1N=C(c2ccc(C)cc2)CC1c1ccc(Cl)cc1 (configuration not stated) | active: 9.2 µM
54 | COc1ccc(-c2nnn(Cc3nc(N)nc(N4CCCCC4)n3)n2)cc1 | inconclusive: 20 µM [inhibitor, single point]
55 | Cc1cccc(N2CCN(C(=O)CCSCc3ccccc3F)CC2)c1C | inactive
56 | COc1ccccc1N1CCN(C(=O)Cn2ncc3c(=O)oc4ccc(C)cc4c32)CC1 | inactive
57 | CCCN(CCC)CCCNC(=S)Nc1ccc2nc3n(c(=O)c2c1)CCCCC3 | inconclusive: 0.316 µM [activator, partial curve, poor fit]
58 | CNC(=O)c1ccsc1NC(=O)c1ccc(S(=O)(=O)N2CCOCC2)cc1 | inconclusive: 18.4 µM [inhibitor, partial curve, poor fit]
59 | CC(C)Oc1ccc(CNC(=O)c2ccc(Cn3c(=O)c4cccn4c4cccnc43)cc2)cc1 | inactive
60 | Cc1csc(NC(=O)CN2C(=O)C3CC=CCC3C2=O)n1 (configuration not stated) | inactive
61 | O=C(CSC1=Nc2ccccc2C2CC=NN12)Nc1ccc2c(c1)OCO2 (configuration not stated) | inactive
62 | CCCc1cnc2c(c1SCc1ccc(C(F)(F)F)cc1)c(=O)n(C)c(=O)n2C | inactive
63 | CC(C)(C)OC(=O)N1CCC(c2c(C(=O)NCC3CCN(C4CCCC4)C3)cnn2-c2cccc(Cl)c2)CC1 (configuration not stated) | inconclusive: 10 µM [inhibitor, partial curve, poor fit]
64 | CC(C)(C)c1ccc(-c2nc3cc(N)ccc3o2)cc1 | inconclusive: 6.31 µM [inhibitor, partial curve]
65 | C=CCN(CC=C)S(=O)(=O)c1ccc2nc(NC(=O)C3CCCO3)sc2c1 (configuration not stated) | inconclusive: 10 µM [inhibitor, partial curve, poor fit]
66 | CCN(CC(=O)Nc1c(F)cccc1F)C(=O)c1ccc(-c2ccccc2)cc1 | inconclusive: 4.47 µM [inhibitor, partial curve, poor fit]
67 | C=CCOc1ccc(/C=C/C(=O)OCC(=O)NCc2cccc(OC)c2)cc1 | inconclusive: 35.5 µM [inhibitor, single point]
68 | CC1(C)CSC(=NCCc2ccccc2)N1C(=O)c1ccc(C#N)cc1 | inconclusive: 35.5 µM [activator, single point]
69 | c1ccc(C2CN3CCSC3=N2)cc1 (configuration not stated) | inactive
70 | CCCN1CCc2c(sc3nc(SCC)n(-c4ccccc4)c(=O)c23)C1 | inconclusive: 10 µM [inhibitor, partial curve, poor fit]
71 | Cc1c(N/C=C/C(=O)c2ccc(Cl)cc2)c(=O)n(-c2ccccc2)n1C | inconclusive: 8.2 µM [activator, partial curve, poor fit]
72 | CCC(=O)NCCc1nc2cc(NC(=O)c3ccc(Cl)cc3)ccc2n1C | inconclusive: 14.1 µM [inhibitor, single point]

— PubChem BioAssay AID540256 (National Center for Advancing Translational Sciences (NCATS), 2011)
